This note sets out measurements from publication PMC4899731.

Protein sequences, listed by entry. Tags and fused reporters are not part of them. Lines headed by an entry give the natural chain unless they say otherwise; changes in a name come on top. Chains listed by the source or under a name are the forms on record and can include a tag or linker.
UniProt P20248: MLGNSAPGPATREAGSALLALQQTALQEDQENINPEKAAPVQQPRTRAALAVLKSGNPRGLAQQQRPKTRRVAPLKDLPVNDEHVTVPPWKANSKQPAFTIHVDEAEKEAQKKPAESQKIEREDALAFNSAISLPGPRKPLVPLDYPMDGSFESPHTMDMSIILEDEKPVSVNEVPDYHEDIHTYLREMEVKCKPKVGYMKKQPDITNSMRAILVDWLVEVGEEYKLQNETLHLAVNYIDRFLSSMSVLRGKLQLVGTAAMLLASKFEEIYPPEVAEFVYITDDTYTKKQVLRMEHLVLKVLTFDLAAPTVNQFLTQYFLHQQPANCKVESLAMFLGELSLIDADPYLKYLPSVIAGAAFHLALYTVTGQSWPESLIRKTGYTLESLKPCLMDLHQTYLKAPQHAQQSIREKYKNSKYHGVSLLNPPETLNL
UniProt P61586: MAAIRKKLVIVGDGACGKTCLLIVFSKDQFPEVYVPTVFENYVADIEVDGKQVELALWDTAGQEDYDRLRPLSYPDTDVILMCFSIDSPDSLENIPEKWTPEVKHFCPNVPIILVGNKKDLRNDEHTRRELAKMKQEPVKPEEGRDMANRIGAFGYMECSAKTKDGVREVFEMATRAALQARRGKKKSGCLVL
RhoA-V14-EGFP (constitutively active mutant form of RhoA) (P61586, form named): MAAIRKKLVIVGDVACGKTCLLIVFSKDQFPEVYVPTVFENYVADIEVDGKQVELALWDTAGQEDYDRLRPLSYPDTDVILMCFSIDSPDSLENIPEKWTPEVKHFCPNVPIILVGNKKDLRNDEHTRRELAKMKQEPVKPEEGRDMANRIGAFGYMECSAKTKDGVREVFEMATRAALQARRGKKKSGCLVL

For this assay, the target named is cyclin A2-mCherry (human) (UniProt P20248). In words: FRET or BRET; FRET measured by FLIM (EGFP lifetime, two-photon excitation) in live mitotic MCF-7 cells, synchronised and microinjected with the vectors. On the technique in general: Bioluminescence resonance energy transfer reports proximity on the nanometre scale.

These are yes or no findings as the source states them, for the method shown. In cells and extracts the contact can be indirect. Some results given as binding are weak or reduced against the parent protein; the word gives no strength.

Take “RhoA-V14-EGFP (constitutively active mutant form of RhoA) (from UniProt P61586 1-193)”: the binding entry was “binds”.
